Data: PMC11176256
Positions count from the first letter of the chain named. Results are given in words; binding and its absence hold for the method and conditions named. Binding seen in cells or lysates may run through a third protein. Some entries that bind do so weakly or less than the wild type. Tags and fused reporters may be left off the sequences shown.

Columns and labels:
Assay in all cases: proximity ligation; THP-1 cells stably transduced with UNC93B1-V5 WT or variant (pTrip-SFFV-GFP-2A), cultured with PMA; Duolink PLA with rabbit anti-V5 and mouse anti-TLR8 antibodies; untreated or R848 0.5 µg/ml for 30 min; methanol-fixed
[1] = biological target: T1, V5-tagged UNC93B1 G325C (pTrip-SFFV-GFP-2A construct, in THP-1 cells) (human) (UniProt Q9H1C4)
T1 sequence: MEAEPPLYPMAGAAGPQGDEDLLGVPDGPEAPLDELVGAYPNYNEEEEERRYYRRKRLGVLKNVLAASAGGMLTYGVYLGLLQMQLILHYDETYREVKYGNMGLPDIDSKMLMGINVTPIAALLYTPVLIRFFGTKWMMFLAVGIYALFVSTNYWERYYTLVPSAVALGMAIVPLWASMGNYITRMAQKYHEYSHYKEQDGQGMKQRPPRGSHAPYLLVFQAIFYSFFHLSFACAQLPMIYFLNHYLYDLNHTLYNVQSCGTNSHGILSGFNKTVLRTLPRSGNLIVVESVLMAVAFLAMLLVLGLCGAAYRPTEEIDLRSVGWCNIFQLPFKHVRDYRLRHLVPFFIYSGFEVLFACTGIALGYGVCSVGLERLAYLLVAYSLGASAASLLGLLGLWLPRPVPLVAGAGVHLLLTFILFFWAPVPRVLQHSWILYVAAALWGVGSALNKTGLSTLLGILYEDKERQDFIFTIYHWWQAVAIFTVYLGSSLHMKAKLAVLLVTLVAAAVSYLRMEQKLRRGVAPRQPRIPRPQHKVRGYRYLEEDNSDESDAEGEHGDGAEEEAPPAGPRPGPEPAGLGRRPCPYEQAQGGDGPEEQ

[2] = biological target: T2, V5-tagged UNC93B1 L330R (pTrip-SFFV-GFP-2A construct, in THP-1 cells) (human) (UniProt Q9H1C4)
T2 sequence: T1 sequence with C325G, L330R

[3] = biological target: T3, V5-tagged UNC93B1 R466S (pTrip-SFFV-GFP-2A construct, in THP-1 cells) (human) (UniProt Q9H1C4)
T3 sequence: T1 sequence with C325G, R466S

[4] = biological target: T4, V5-tagged UNC93B1 R525P (pTrip-SFFV-GFP-2A construct, in THP-1 cells) (human) (UniProt Q9H1C4)
T4 sequence: T1 sequence with C325G, R525P

[5] = biological target: T5, V5-tagged human WT UNC93B1 (pTrip-SFFV-GFP-2A construct, in THP-1 cells) (human) (UniProt Q9H1C4)
T5 sequence: T1 sequence with C325G

binding [1]: binds | binding [2]: binds | binding [3]: binds | binding [4]: binds | binding [5]: binds
B1: TLR8 (endogenous in THP-1 cells) (receptor, UniProt Q9NR97 27-1041)
chain: EENFSRSYPCDEKKQNDSVIAECSNRRLQEVPQTVGKYVTELDLSDNFITHITNESFQGLQNLTKINLNHNPNVQHQNGNPGIQSNGLNITDGAFLNLKNLRELLLEDNQLPQIPSGLPESLTELSLIQNNIYNITKEGISRLINLKNLYLAWNCYFNKVCEKTNIEDGVFETLTNLELLSLSFNSLSHVPPKLPSSLRKLFLSNTQIKYISEEDFKGLINLTLLDLSGNCPRCFNAPFPCVPCDGGASINIDRFAFQNLTQLRYLNLSSTSLRKINAAWFKNMPHLKVLDLEFNYLVGEIASGAFLTMLPRLEILDLSFNYIKGSYPQHINISRNFSKLLSLRALHLRGYVFQELREDDFQPLMQLPNLSTINLGINFIKQIDFKLFQNFSNLEIIYLSENRISPLVKDTRQSYANSSSFQRHIRKRRSTDFEFDPHSNFYHFTRPLIKPQCAAYGKALDLSLNSIFFIGPNQFENLPDIACLNLSANSNAQVLSGTEFSAIPHVKYLDLTNNRLDFDNASALTELSDLEVLDLSYNSHYFRIAGVTHHLEFIQNFTNLKVLNLSHNNIYTLTDKYNLESKSLVELVFSGNRLDILWNDDDNRYISIFKGLKNLTRLDLSLNRLKHIPNEAFLNLPASLTELHINDNMLKFFNWTLLQQFPRLELLDLRGNKLLFLTDSLSDFTSSLRTLLLSHNRISHLPSGFLSEVSSLKHLDLSSNLLKTINKSALETKTTTKLSMLELHGNPFECTCDIGDFRRWMDEHLNVKIPRLVDVICASPGDQRGKSIVSLELTTCVSDVTAVILFFFTFFITTMVMLAALAHHLFYWDVWFIYNVCLAKVKGYRSLSTSQTFYDAYISYDTKDASVTDWVINELRYHLEESRDKNVLLCLEERDWDPGLAIIDNLMQSINQSKKTVFVLTKKYAKSWNFKTAFYLALQRLMDENMDVIIFILLEPVLQHSQYLRLRQRICKSSILQWPDNPKAEGLFWQTLRNVVLTENDSRYNNMYVDSIKQY
